Reference: the supplement of paper PMC4840960
Some of the results follow. Baselines shift from plate to plate; read single values as rough.

These compounds were tested on E18 rat cortical neuron-glia co-culture (assay: total nuclei (DAPI) / Olig2+ nuclei (ratio); higher = more depletion of OPC/OL lineage cells). Settings: 1 µM; treatment time: 8 days (DIV5-DIV13).
Method: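 Primary E18 rat cortical co-cultures (neurons, astrocytes, OPC/OLs) in 96-well plates. NIH Clinical Collection compounds were added on DIV5 in myelination medium at 5 and 1 µM for 8 days, then cells were fixed on DIV13 and stained for MBP, Olig2 and DAPI. Myelination (contiguous aligned MBP fiber length per Olig2+ nucleus) was normalised to plate controls (0.1% DMSO = 0, 1 µM DAPT = 100) as % of DAPT. Each value is from duplicate wells with 4 image fields each. Fiber length/MBP is the fiber score divided by the MBP differentiation score; DAPI/Olig2 is the ratio of total to Olig2+ nuclei.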

Compound | total nuclei
Cc1nnc2n1-c1ccc(Cl)cc1C(c1ccccc1)=NC2 [Alprazolam] | 3.4
C[C@H]1CCC[C@H](O)CCCCCc2cc(O)cc(O)c2C(=O)O1 [Zeranol] | 2.89
C=C1C[C@@H]2[C@H](CC[C@]3(C)C(=O)CC[C@@H]23)[C@@]2(C)C=CC(=O)C=C12 [Exemestane] | 2.6
O=C1CC[C@@]2(O)[C@H]3Cc4ccc(O)c5c4[C@@]2(CCN3CC2CC2)[C@H]1O5 [Naltrexone] | 4.45
CCOC(=O)C1(c2ccccc2)CCN(CCC(C#N)(c2ccccc2)c2ccccc2)CC1 [Diphenoxylate] | 3.17
O=c1c2ccccc2[se]n1-c1ccccc1 [Ebselen] | 4.7
C[C@]12C/C(=C/O)C(=O)C[C@@H]1CC[C@@H]1[C@@H]2CC[C@@]2(C)[C@H]1CC[C@]2(C)O [Oxymetholone] | 3.18
CCN(C(C)=O)c1cccc(-c2ccnc3c(C#N)cnn23)c1 [Zaleplon] | 4.21
Cc1ncc2n1-c1ccc(Cl)cc1C(c1ccccc1F)=NC2 [Midazolam] | 6.36
O=C(O)CCCc1ccc(N(CCCl)CCCl)cc1 [Chlorambucil] | 2.8
CN1CCN(C(=O)O[C@H]2c3nccnc3C(=O)N2c2ccc(Cl)cn2)CC1 [Eszopiclone] | 2.53
COc1ccc2[nH]cc(C3=CCNCC3)c2c1 | 2.57
CCCCC/C=C\C/C=C\C/C=C\C/C=C\CCCC(=O)Nc1ccc(O)cc1 | 8.92
CS(=O)(=O)Nc1ccc(Cc2noc(-c3ccc4[nH]cc(CCN)c4c3)n2)cc1 | 2.9
C[C@]12CC[C@H](O)CC1=CC[C@@H]1[C@@H]2CC[C@]2(C)C(=O)CC[C@@H]12 [Dehydroepiandrosterone] | 3.87
CCN(CC)CCOC(=O)C(O)(c1ccccc1)c1ccccc1 [Benactyzine] | 2.73
CC[C@]1(O)CC[C@H]2[C@@H]3CCC4=CCCC[C@@H]4[C@H]3CC[C@@]21C [Ethylestrenol] | 2.72
COc1ccc2[nH]cc(CCN)c2c1 [5-Methoxytryptamine] | 2.81
CCC(COC(=O)c1cc(OC)c(OC)c(OC)c1)(c1ccccc1)N(C)C (stereo not given) [Trimebutine] | 4.11
C[C@]12Cc3c[nH]nc3C[C@@H]1CC[C@@H]1[C@@H]2CC[C@@]2(C)[C@H]1CC[C@]2(C)O [Stanozolol] | 4.03

Same assay, conditions: 5 µM; treatment time: 8 days (DIV5-DIV13)

Compound | total nuclei
Cc1nnc2n1-c1ccc(Cl)cc1C(c1ccccc1)=NC2 [Alprazolam] | 3.8
C[C@H]1CCC[C@H](O)CCCCCc2cc(O)cc(O)c2C(=O)O1 [Zeranol] | 3
C=C1C[C@@H]2[C@H](CC[C@]3(C)C(=O)CC[C@@H]23)[C@@]2(C)C=CC(=O)C=C12 [Exemestane] | 2.5
O=C1CC[C@@]2(O)[C@H]3Cc4ccc(O)c5c4[C@@]2(CCN3CC2CC2)[C@H]1O5 [Naltrexone] | 4.2
CCOC(=O)C1(c2ccccc2)CCN(CCC(C#N)(c2ccccc2)c2ccccc2)CC1 [Diphenoxylate] | 3.1
O=c1c2ccccc2[se]n1-c1ccccc1 [Ebselen] | > 40
C[C@]12C/C(=C/O)C(=O)C[C@@H]1CC[C@@H]1[C@@H]2CC[C@@]2(C)[C@H]1CC[C@]2(C)O [Oxymetholone] | 3.3
CCN(C(C)=O)c1cccc(-c2ccnc3c(C#N)cnn23)c1 [Zaleplon] | 5.3
Cc1ncc2n1-c1ccc(Cl)cc1C(c1ccccc1F)=NC2 [Midazolam] | 9.5
O=C(O)CCCc1ccc(N(CCCl)CCCl)cc1 [Chlorambucil] | 3.2
CN1CCN(C(=O)O[C@H]2c3nccnc3C(=O)N2c2ccc(Cl)cn2)CC1 [Eszopiclone] | 2.9
COc1ccc2[nH]cc(C3=CCNCC3)c2c1 | 2.8
CCCCC/C=C\C/C=C\C/C=C\C/C=C\CCCC(=O)Nc1ccc(O)cc1 | 8
CS(=O)(=O)Nc1ccc(Cc2noc(-c3ccc4[nH]cc(CCN)c4c3)n2)cc1 | 3
C[C@]12CC[C@H](O)CC1=CC[C@@H]1[C@@H]2CC[C@]2(C)C(=O)CC[C@@H]12 [Dehydroepiandrosterone] | 3.9
CCN(CC)CCOC(=O)C(O)(c1ccccc1)c1ccccc1 [Benactyzine] | 2.9
CC[C@]1(O)CC[C@H]2[C@@H]3CCC4=CCCC[C@@H]4[C@H]3CC[C@@]21C [Ethylestrenol] | 5.5
COc1ccc2[nH]cc(CCN)c2c1 [5-Methoxytryptamine] | 2.8
CCC(COC(=O)c1cc(OC)c(OC)c(OC)c1)(c1ccccc1)N(C)C (stereo not given) [Trimebutine] | 4.7
C[C@]12Cc3c[nH]nc3C[C@@H]1CC[C@@H]1[C@@H]2CC[C@@]2(C)[C@H]1CC[C@]2(C)O [Stanozolol] | > 40
